Data on 1 substance can be found in article PMC10040760.

The target in the test is FaGL3 (Fragaria × ananassa). As to the kind of experiment: two-hybrid; Matchmaker Gold system; baits fused to the Gal4 DNA-binding domain (pGBKT7), preys to the Gal4 activation domain (pGADT7); read on QDO/X/A (SD/-Trp/-Leu/-His/-Ade/+X-α-gal/+AbA).

These are yes or no findings as the source states them, for the method shown. Binding calls can cover weak binding; strength is not graded here.

As to FaTTG1 (from UniProt A0A9E9M670), the binding result is reported as “binds”.
